The values below come from patent US20230181748A1, “MEANS AND METHODS FOR THE TREATMENT OF PATHOLOGICAL AGGREGATION” (priority 2020, published 2023).

Protein sequences, listed by entry. Tags and fused reporters are not part of them. Lines headed by an entry give the natural chain unless they say otherwise; changes in a name come on top.
UniProt P10636: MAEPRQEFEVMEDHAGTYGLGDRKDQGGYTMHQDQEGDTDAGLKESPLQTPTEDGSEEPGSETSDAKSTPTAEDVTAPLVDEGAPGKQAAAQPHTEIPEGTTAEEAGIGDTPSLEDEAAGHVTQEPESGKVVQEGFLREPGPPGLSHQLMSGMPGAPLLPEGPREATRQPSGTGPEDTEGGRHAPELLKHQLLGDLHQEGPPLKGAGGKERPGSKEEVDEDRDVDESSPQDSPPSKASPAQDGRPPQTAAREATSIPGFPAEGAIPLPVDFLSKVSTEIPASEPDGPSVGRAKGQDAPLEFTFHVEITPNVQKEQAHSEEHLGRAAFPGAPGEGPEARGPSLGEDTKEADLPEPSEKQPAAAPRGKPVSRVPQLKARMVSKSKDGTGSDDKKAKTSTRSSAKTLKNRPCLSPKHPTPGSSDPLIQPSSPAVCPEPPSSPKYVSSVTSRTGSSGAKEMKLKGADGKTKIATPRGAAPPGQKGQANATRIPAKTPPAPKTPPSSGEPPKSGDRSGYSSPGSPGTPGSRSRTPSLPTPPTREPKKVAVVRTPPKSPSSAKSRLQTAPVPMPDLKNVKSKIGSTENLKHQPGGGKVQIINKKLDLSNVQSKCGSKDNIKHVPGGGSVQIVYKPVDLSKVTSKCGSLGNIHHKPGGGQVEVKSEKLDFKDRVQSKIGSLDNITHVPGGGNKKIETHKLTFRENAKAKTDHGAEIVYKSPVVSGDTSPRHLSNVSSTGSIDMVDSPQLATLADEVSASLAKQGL

The target of this experiment is atto-633-labeled preformed tau aggregates (UniProt P10636). As to the kind of experiment: Microscale Thermophoresis (MST), atto-633-labeled preformed tau aggregates with a concentration range of peptide. In general terms: Microscale thermophoresis detects binding through changes in fluorescence in a small temperature gradient.

Results are given in words; binding and its absence hold for the method and conditions named. Some results given as binding are weak or reduced against the parent protein; the word gives no strength.

B1: HET_JAV (peptide)
peptide: WQIVYKGSVWMINKGSGSNLLRLTGW
For B1, the binding result is “binds”.

B2: HET (peptide)
peptide: WQIVYKGSVWMINK
In the case of B2, the binding result is on record as “binds”.
